Results are given in words; binding and its absence hold for the method and conditions named. Binding seen in cells or lysates may run through a third protein. A yes stands for co-enrichment or nearness to the bait. Other partners may have been found.

Amino acid sequences for entries named in this document (tags omitted).
UniProt P60281: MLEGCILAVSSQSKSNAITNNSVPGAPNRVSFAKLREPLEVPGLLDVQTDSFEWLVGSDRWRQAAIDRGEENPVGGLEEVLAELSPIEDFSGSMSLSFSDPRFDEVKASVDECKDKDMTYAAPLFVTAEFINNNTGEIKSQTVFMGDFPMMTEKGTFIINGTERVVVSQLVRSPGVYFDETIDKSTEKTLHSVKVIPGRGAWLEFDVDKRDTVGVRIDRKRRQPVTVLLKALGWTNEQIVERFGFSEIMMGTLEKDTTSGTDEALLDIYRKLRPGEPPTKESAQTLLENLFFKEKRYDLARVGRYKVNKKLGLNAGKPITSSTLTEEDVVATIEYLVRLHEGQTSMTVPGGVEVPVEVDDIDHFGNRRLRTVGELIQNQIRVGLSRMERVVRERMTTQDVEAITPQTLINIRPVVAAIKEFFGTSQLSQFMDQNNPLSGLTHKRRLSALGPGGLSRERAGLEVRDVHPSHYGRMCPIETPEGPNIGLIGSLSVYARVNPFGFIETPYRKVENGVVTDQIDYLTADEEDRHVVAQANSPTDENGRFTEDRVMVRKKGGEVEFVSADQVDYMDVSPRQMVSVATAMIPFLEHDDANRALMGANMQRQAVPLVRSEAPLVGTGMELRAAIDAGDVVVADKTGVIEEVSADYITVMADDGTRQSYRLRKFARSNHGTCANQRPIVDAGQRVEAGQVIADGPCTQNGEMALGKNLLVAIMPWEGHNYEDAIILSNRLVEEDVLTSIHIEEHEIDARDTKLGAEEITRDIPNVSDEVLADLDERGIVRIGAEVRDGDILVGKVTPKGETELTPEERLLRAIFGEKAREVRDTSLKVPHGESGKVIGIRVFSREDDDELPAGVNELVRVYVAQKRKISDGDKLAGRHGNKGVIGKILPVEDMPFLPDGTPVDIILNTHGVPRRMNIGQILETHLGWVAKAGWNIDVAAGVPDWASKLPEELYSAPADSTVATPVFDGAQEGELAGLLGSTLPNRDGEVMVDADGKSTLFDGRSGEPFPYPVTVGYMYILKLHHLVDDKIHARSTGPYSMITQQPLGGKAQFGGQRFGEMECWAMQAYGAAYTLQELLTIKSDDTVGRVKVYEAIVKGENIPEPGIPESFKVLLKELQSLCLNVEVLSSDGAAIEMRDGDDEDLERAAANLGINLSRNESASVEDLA
UniProt Q59553: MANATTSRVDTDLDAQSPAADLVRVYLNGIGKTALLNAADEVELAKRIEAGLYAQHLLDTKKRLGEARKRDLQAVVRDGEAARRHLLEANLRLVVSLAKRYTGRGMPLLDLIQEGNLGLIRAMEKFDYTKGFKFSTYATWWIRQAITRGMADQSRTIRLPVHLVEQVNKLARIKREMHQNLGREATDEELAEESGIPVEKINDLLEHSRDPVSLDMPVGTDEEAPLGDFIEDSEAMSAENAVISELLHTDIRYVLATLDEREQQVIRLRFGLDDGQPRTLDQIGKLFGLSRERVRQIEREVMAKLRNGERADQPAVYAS

The values below come from publication PMC7092591.

The target of the assay is RNA polymerase β-subunit (M. smegmatis (endogenous in M. smegmatis mc2155)) (UniProt P60281). Nature of the assay: affinity purification with mass spectrometry; M. smegmatis cultures treated with 1% formaldehyde (10 min, 37 °C), lysed, treated with micrococcal nuclease and RNAse A; anti-RNAP β-subunit antibody on Protein G Dynabeads, 2 h at 4 °C; washes up to 750 mM NaCl and 250 mM LiCl; on-bead tryptic digestion, LC-MS/MS; controls: bare Protein G Dynabeads and anti-MYH7 antibody; biological triplicate.

For the substance MysB (from UniProt Q59553 1-319), the binding entry was “binds”.
